These results are taken from PubChem BioAssay AID445 (National Center for Advancing Translational Sciences (NCATS), 2006).

A short description of the assay: IkB Signaling. The following applies: ABC-DLBCL IkBa-CBG/CBR dual luciferase ratio (green luciferase fused to IkBa over red control in OCI-Ly3 lymphoma cells), 4 h. The method in brief:
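In this assay, an IκBα–CBG68 fusion accumulates when IKK-driven degradation is blocked; native CBR normalizes for cell number. OCI-Ly3 cells were treated 4 h with compound and doxycycline, then green and red light read after Chroma-Glo addition.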

Setting [1] is: measured here: control luc red channel unless noted.
[2] abbreviates: measured here: IkB-luc green channel.
[3] abbreviates: measured here: control luc red channel.

Some of the results follow. Further columns of the screen follow, without active or inactive calls. Most of these compounds were active or inconclusive in the main read-out, so they are no random draw. Words in brackets tell the shape of the fitted curve; partial curves, single points and poor fits give uncertain potencies.

Regarding `CCOc1ccc(N2CC(c3nc4ccccc4n3CCOc3ccccc3OC)CC2=O)cc1` (configuration not stated), the AC50 under setting [1] was 31.6 µM [falling, single point].

Turning to `CCc1cc(=O)oc2cc(C)cc(O)c12`, under setting [1], the AC50 is 3.98 µM [rising, partial curve].

Turning to `Cc1ccc(-c2nn3c(C)nnc3s2)cc1NC(=O)c1ccc(OC(C)C)cc1`, the AC50 under setting [1] was 15.8 µM [falling, partial curve].

On to `N#C/C(=C\NC(=S)c1ccncc1)c1nc2ccccc2s1`, for which the AC50 under setting [1] is 0.316 µM [falling, full curve].

Consider `CCOc1ccc(CCNC(=O)CS(=O)(=O)Cc2nc(-c3ccc(OC)cc3)oc2C)cc1`, for which the AC50 under setting [1] is 12.6 µM [falling, partial curve].

`COc1ccc(-c2nc(CSCC(=O)N3CCN(c4cc(Cl)ccc4C)CC3)c(C)o2)cc1`: under setting [1], the AC50 is 15.8 µM [falling, partial curve].

Regarding `Cc1ccc(C(C)C)c(OCC(O)CN2CCN(c3ccccc3F)CC2)c1` (configuration not stated), the AC50 under setting [1] is 31.6 µM [falling, single point].

On to `CCOc1ccc(CCNC(=O)CN2C(=O)COc3ccc(S(=O)(=O)N4CCCC4)cc32)cc1`, for which the AC50 under setting [1] is 20 µM [falling, partial curve].

On to `Cc1cccc(-c2nc(C)c(CCNC(=O)C(=O)Nc3ccccc3C#N)s2)c1`, for which the AC50 under setting [1] is 0.631 µM [rising, partial curve, poor fit].

Take `Cc1[nH]nc2c1C(C1CC=CCC1)C(C#N)=C(N)O2` (configuration not stated): the AC50 under setting [1] was 7.94 µM [falling, full curve].

`Cc1ccc2[nH]c(=O)c(CN(Cc3ccc4c(c3)OCO4)Cc3nnnn3C3CCCC3)cc2c1`: under setting [1], the AC50 was 31.6 µM [falling, partial curve].

`COc1ccc(Cl)cc1S(=O)(=O)NCc1ccc2c(c1)CCN2C(=O)c1cccc(C)c1`: the AC50 under setting [1] is 25.1 µM [falling, partial curve].

As to `CCOC(=O)c1ccc(N2C(=O)c3n[nH]c(-c4ccco4)c3C2c2cccc(OC)c2)cc1` (configuration not stated), the AC50 under setting [1] was 15.8 µM [falling, partial curve].

In the case of `COCCCNC(=O)c1ccc(-c2nc(CS(=O)(=O)c3ccc(C)cc3)c(C)o2)cc1`, the AC50 under setting [1] was 0.126 µM [rising, full curve, poor fit].

Turning to `CCOC(=O)c1cccc(NC(=O)CN(c2ccc(C)cc2)S(=O)(=O)c2c(C)n[nH]c2C)c1`, under setting [1], the AC50 is 1 µM [falling, partial curve].

For the molecule `CCn1c(C(=O)N2CCC(C(=O)NCCc3ccc(C)cc3)CC2)cc2sccc21`, the AC50 under setting [1] is 25.1 µM [falling, single point].

Consider `N#Cc1c(C(F)(F)F)cc(-c2ccc(F)cc2)nc1SCC(=O)Nc1ccccc1`, for which, under setting [1], the AC50 was 7.94 µM [falling, full curve].

In the case of `COc1ccccc1C(=O)Nc1cccc(C(=O)OCc2cc(=O)n3ccsc3n2)c1`, the AC50 under setting [1] is 3.16 µM [falling, full curve].

Turning to `CCOC(=O)C1CCCN(C(=O)c2sc3nc(-c4ccccc4)cn3c2C)C1` (configuration not stated), under setting [1], the AC50 is 25.1 µM [falling, partial curve].

For the molecule `C(=C\c1ccccc1)/CSc1nnc(-c2ccccn2)n1Cc1ccco1`, the AC50 under setting [1] was 39.8 µM [falling, single point].

Consider `COc1ccc(-c2nc(CS(=O)(=O)CC(=O)NCc3ccccc3Br)c(C)o2)cc1`, for which the AC50 under setting [1] is 39.8 µM [falling, partial curve].

Take `Cc1nc2cc(-c3ccccc3)nn2c(C)c1CCC(=O)Nc1ccc(F)cc1F`: the AC50 under setting [1] is 5.01 µM [falling, partial curve].

Regarding `CCOC(=O)c1c(NC(=O)COc2ccc(Cl)cc2C)sc2c1CCCCC2`, the AC50 under setting [1] was 12.6 µM [falling, partial curve].

Regarding `Cc1ccc(CNC(=O)CS(=O)(=O)c2cccc3nsnc23)cc1`, the AC50 under setting [1] was 1.58 µM [rising, full curve, poor fit].

In the case of `COCCn1c(=O)[nH]c2cc(C(=O)N3CCN(c4ccccc4)CC3)ccc2c1=O`, the AC50 under setting [1] is 10 µM [falling, partial curve].

Regarding `COc1ccc(-n2nnnc2C2CCN(S(=O)(=O)c3ccc(C)cc3)CC2)cc1`, the AC50 under setting [1] is 12.6 µM [falling, partial curve].

On to `O=C(CSc1nc(-c2ccco2)cc(C(F)(F)F)n1)N1CCN(Cc2ccccc2)CC1`, for which the AC50 under setting [2] was 10 µM [falling, partial curve] and the AC50 under setting [3] was 10 µM [falling, partial curve].

With `CCOc1ccc(CNC(=O)c2nn(-c3ccc(OC)cc3)c(=O)c3c2c2ccccc2n3C)cc1`, the AC50 under setting [1] is 0.398 µM [rising, full curve, poor fit].

Consider `Cc1ccc(-c2ccc(CCC(=O)O)n2-c2ccc(C(N)=O)cc2)cc1`, for which the AC50 under setting [1] is 25.1 µM [falling, single point].

Consider `Nc1nnc(-c2cc3ccccc3oc2=O)s1`, for which, under setting [1], the AC50 is 20 µM [falling, partial curve].

As to `CC1=Nc2cc(C(=O)N3CCC(C)CC3)ccc2Sc2ccc(Cl)cc21`, under setting [1], the AC50 is 31.6 µM [falling, partial curve].

For `COc1ccc(-c2n[nH]c3c2cnc2ccc(F)cc23)cc1`, the AC50 under setting [1] was 0.1 µM [rising, full curve].

On to `CCCSc1nc(-c2ccccc2)[nH]c1S(=O)(=O)c1ccc(C)cc1`, for which the AC50 under setting [1] is 25.1 µM [falling, partial curve].

With `Cc1ccc(-c2c(C(=O)NCCc3ccccc3)oc(=O)c3ccccc23)cc1`, the AC50 under setting [1] is 25.1 µM [falling, single point].

Consider `COc1ccccc1NC(=O)c1cnc(SCC(=O)N2CCOCC2)n(C)c1=O`, for which the AC50 reads like this: under setting [2], 31.6 µM [rising, single point]; under setting [3], 6.31 µM [falling, single point].

Consider `CCOC(=O)C1CCCN(CC(=O)Nc2cc(C)c3c(=O)oc4ccccc4c3n2)C1` (configuration not stated), for which the AC50 under setting [1] is 15.8 µM [falling, partial curve].

Turning to `Cc1ccccc1NC(=O)c1nc[nH]c1C(=O)NCc1ccccc1`, the AC50 was 39.8 µM [rising, single point] under setting [2] and 25.1 µM [falling, single point] under setting [3].

For the molecule `Cc1ccc(CNC(=O)CN2C(=O)C3(SCC(=O)N3c3ccc(F)cc3)c3ccccc32)cc1` (configuration not stated), under setting [1], the AC50 was 20 µM [falling, single point].

With `COc1ccc2c(c1)Cc1sc(NC(=O)c3cccc(Br)c3)nc1-2`, the half-maximal activity concentration (AC50) under setting [1] was 12.6 µM [falling, partial curve].
